The inconclusive results got no clear call from the source; some entries with a clear call stand among them for comparison. Where a call stands in place of a potency, no number is given. Where the call is inconclusive, the potency comes from a doubtful curve fit. Active and inactive are the calls of the source. Calls follow the shape of the dose curve; as a rule, active = well fitted cell-killing curve with a large enough effect in the repeat runs; inconclusive = weak or mixed curves, or effect the other way; inactive = flat fitted curve, though single readings scatter.
Experiment: cAMP Responsive Elements (CRE) small molecule agonists, cell-based qHTS assay: qHTS cell viability counter screen (AID 2060914); also: nearly all actives have a fitted effect of over 50% in size
Conditions: CRE-bla HEK293T viability, CellTiter-Glo luminescence, 5 h; series mostly up to 92.4 µM
How it was run: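 Cells are seeded and incubated 18 h, treated with compounds in DMSO for 3 h, read for the bla reporter, then given CellTiter-Glo; luminescence is measured after 30 min at room temperature.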
Potency is read from the fitted curve at half-maximal effect.

SMILES	Potency
Cn1[nH]nnc1=S	inactive
CCC(C)Cl (centres undefined)	inactive
COP(=O)(OC)C(O)C(Cl)(Cl)Cl (centres undefined)	inconclusive: 68.5 µM [cytotoxic, single point]
NNc1ccccc1	inconclusive: 68.5 µM [cytotoxic, single point]

From PubChem BioAssay (Tox21)
